These are yes or no findings as the source states them, for the method shown. Some binding calls cover weakened binding; strength is not graded here.
Legend:
[1] = target: MORT-1 fragment, amino acids 130-245 (C-terminal part with the death domain homology region) (human) (UniProt Q13158); experiment: yeast two-hybrid, β-galactosidase expression
[2] = target: intracellular domain of human p55 TNF receptor (residues 206-426) (human) (UniProt P19438); experiment: yeast two-hybrid, β-galactosidase expression
[3] = target: p55 TNF-R death domain, residues 326-426 (UniProt P19438); experiment: yeast two-hybrid, β-galactosidase expression
[4] = target: T1, MORT-1 protein (full-length) (human); experiment: yeast two-hybrid, β-galactosidase expression
T1 sequence: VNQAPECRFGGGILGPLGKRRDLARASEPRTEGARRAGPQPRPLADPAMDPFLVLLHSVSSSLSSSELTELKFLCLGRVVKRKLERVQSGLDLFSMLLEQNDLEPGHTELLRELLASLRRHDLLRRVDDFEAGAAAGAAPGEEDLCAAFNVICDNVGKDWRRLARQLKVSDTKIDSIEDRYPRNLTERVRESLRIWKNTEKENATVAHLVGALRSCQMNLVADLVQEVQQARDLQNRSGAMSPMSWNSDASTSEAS

Protein sequences, listed by entry. Tags and fused reporters are not part of them. Lines headed by an entry give the natural chain unless they say otherwise; changes in a name come on top. Residues count along the entry.
UniProt Q13158: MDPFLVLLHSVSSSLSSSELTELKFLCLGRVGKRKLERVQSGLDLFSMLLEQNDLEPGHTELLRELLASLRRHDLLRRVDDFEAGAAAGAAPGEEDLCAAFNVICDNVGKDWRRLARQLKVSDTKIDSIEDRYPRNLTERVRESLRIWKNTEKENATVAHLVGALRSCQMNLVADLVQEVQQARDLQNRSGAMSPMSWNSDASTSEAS
intracellular domain of human p55 TNF receptor (residues 206-426) (P19438, residues 235-455): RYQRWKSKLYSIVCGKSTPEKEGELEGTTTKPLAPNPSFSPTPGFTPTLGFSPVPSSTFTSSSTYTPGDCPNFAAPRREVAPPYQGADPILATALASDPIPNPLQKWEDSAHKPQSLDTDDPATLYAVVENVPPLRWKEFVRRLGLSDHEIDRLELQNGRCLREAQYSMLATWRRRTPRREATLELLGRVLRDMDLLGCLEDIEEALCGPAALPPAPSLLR
p55 TNF-R death domain, residues 326-426 (P19438, residues 355-455): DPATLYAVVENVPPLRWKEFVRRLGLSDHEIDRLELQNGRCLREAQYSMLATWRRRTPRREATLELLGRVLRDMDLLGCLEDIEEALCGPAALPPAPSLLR

[5] = target: intracellular domain of human p55 TNF receptor (residues 206-426) (human) (UniProt P19438); experiment: yeast two-hybrid screen of a human B-cell library
[6] = target: T1, MORT-1 protein (full-length) (human); experiment: yeast two-hybrid screen of a human B-cell library

binding [2]: binds
binding [4]: binds
binding [5]: binds
binding [6]: binds
B1: MORT-1-binding protein of Example 2 (product of the two cDNA clones from the human B-cell library) (protein, UniProt Q15628 1-312, looked up)
chain: MAAGQNGHEEWVGSAYLFVESSLDKVVLSDAYAHPQQKVAVYRALQAALAESGGSPDVLQMLKIHRSDPQLIVQLRFCGRQPCGRFLRAYREGALRAALQRSLAAALAQHSVPLQLELRAGAERLDALLADEERCLSCILAQQPDRLRDEELAELEDALRNLKCGSGARGGDGEVASAPLQPPVPSLSEVKPPPPPPPAQTFLFQGQPVVNRPLSLKDQQTFARSVGLKWRKVGRSLQRGCRALRDPALDSLAYEYEREGLYEQAFQLLRRFVQAEGRRATLQRLVEALEENELTSLAEDLLGLTDPNGGLA
binding [1]: binds
binding [3]: binds

From patent publication US20070154905A1
